Data from US20120041058A1, “COMPOSITION OF TRADITIONAL CHINESE MEDICINE FOR REDUCING BLOOD FAT AND PREPARATION METHOD THEREOF” (ANJI GREEN LIFE BIOTECH CO., LTD., priority 2009, published 2012).

System: lipid metabolism disorder rat model
Assay: Prophylactic administration in the rat model of lipid metabolism disorder (high-fat food)
Type: in vivo, SD rats
Protocol: Influence of the prophylactic administration of the blood-lipid-lowering traditional Chinese medicine compositions on the rat model of lipid metabolism disorder. Thirty SD rats were fed with general nutrition food for a week, then the blood collection was carried out via capillary eye canthus for separating serum. The levels of triglyceride (TG), total cholesterol (CHO), high density lipoprotein cholesterol (HDL-C) and low density lipoprotein cholesterol (LDL-C) were determined. According to the above respective item and the body weight index of rats, the animals were sampled and uniformly divided into five groups. [table] […] Then the abdominal aortic bloods were collected, the serum was centrifuging separated, and the levels of AST, ALT, ALP, T-Bil, TG, CHO, HDL-C and LDL-C were determined. Weighing the liver to calculate the liver coefficients. […] Statistic analysis: All of the above indicators are expressed in mean±standard deviation, and compared using the t-test.

[1] = SD rats, high-fat food, 2 weeks, liver lipid extract, dose 10 mg/kg
[2] = SD rats, high-fat food, 2 weeks, serum, dose 10 mg/kg
[3] = SD rats, high-fat food, 2 weeks, dose 10 mg/kg
[4] = SD rats, high-fat food, serum, dose 10 mg/kg
[5] = SD rats, high-fat food, dose 10 mg/kg
[6] = SD rats, serum, baseline, group dose 10 mg/kg

CC(C)c1c(C(=O)Nc2ccccc2)c(-c2ccccc2)c(-c2ccc(F)cc2)n1CC[C@@H](O)C[C@@H](O)CC(=O)O [Atorvastatin]
CHO content of liver [1]: 9.66 ± 1.23 mmol/L | TG content of liver [1]: 10.37 ± 1.72 mmol/L | ALP [2]: 43.2 ± 8.8 IU/L | ALT [2]: 52.7 ± 12.5 IU/L | AST [2]: 94.3 ± 30.1 IU/L | T-Bil [2]: 6.61 ± 2.57 µmol/L | Liver index [3]: 41.49 ± 1.97 mg/g | Liver weight [3]: 11.06 ± 0.77 g | H/L after 2 weeks of administration (SD rats, high-fat food, serum HDL-C/LDL-C ratio, dose 10 mg/kg): 0.90 ± 0.30 | CHO after 2 weeks of modeling and administration [4]: 3.35 ± 0.50 mmol/L | HDL-C after 2 weeks of administration [4]: 1.04 ± 0.17 mmol/L | LDL-C after 2 weeks of administration [4]: 1.27 ± 0.47 mmol/L | TG after 2 weeks of modeling and administration [4]: 2.14 ± 1.03 mmol/L | body weight After 1 week of administration [5]: 231.2 ± 7.6 g | body weight After 2 weeks of administration [5]: 255.0 ± 11.0 g | body weight After 3 weeks of administration [5]: 266.7 ± 13.7 g | H/L before administion (SD rats, serum HDL-C/LDL-C ratio, baseline, group dose 10 mg/kg): 2.35 ± 1.44 | CHO before administion [6]: 1.61 ± 0.35 mmol/L | HDL-C before administion [6]: 0.74 ± 0.06 mmol/L | LDL-C before administion [6]: 0.43 ± 0.24 mmol/L | TG before administion [6]: 1.52 ± 0.33 mmol/L | H/L ratios vs model group (oral 10 mg/kg, result in words): significantly increased | LDL-C vs model group (oral 10 mg/kg, result in words): significant effect of reducing LDL-C | serum CHO level of hyperlipidemia rats vs model group (oral 10 mg/kg, result in words): significantly reduce the serum CHO level | serum HDL-C levels of hyperlipidemia rats vs model group (oral 10 mg/kg, result in words): significantly increase the serum HDL-C levels
